Data as given in publication PMC11628618.
These are yes or no findings as the source states them, for the method shown. For some of these results: Binding can be weak; no strength is given. For some of these results: Sequences can lack the tags named with a protein. Values belong to the molecule of their own block, whether it stands above or below them.

By UniProt entry, the sequences of proteins in these tests, tags left out. Where a name states a change or a piece, a line headed by the entry shows the natural chain unless it says otherwise.
UniProt V6F519: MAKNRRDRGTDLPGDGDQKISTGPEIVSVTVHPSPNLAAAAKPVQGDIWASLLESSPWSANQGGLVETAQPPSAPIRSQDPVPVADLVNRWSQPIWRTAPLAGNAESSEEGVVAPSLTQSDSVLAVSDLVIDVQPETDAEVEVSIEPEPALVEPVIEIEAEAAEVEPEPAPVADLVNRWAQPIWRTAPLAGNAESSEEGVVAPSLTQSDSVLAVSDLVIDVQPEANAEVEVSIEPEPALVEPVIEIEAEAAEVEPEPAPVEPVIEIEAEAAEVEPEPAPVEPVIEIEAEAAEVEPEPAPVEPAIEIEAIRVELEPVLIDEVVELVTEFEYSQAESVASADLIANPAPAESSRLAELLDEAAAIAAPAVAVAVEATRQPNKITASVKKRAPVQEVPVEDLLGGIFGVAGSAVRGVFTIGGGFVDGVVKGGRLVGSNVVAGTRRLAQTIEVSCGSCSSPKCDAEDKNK

Tests used:
Assay in all cases: two-hybrid; adenylate cyclase-based bacterial two-hybrid (BACTH), T18 and T25 fusions co-transformed into E. coli BTH101; spotted on M63 maltose/X-Gal/IPTG agar, 28 °C, one day; only homogeneous intense blue counted as positive
[1] = target: T1, MamF, bacterial two-hybrid fusion (Magnetospirillum gryphiswaldense MSR-1) (UniProt Q6NE74)
T1 sequence: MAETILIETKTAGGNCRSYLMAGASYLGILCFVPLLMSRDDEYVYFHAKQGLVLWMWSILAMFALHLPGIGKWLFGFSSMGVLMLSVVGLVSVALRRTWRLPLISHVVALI

[2] = target: T2, MmsF, bacterial two-hybrid fusion (Magnetospirillum gryphiswaldense MSR-1) (UniProt A4U547)
T2 sequence: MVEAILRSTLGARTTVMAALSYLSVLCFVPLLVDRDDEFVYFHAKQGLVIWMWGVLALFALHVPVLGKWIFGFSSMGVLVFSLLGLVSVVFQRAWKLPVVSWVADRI

[3] = target: MmxF, bacterial two-hybrid fusion (Magnetospirillum gryphiswaldense MSR-1)

- binding [1]: no binding
- binding [2]: binds
Molecule: MamJ C-terminus (aa 334-426), bacterial two-hybrid fusion (from UniProt V6F519) (domain or fragment)

- binding [3]: no binding
B1: Mms6 (protein, UniProt Q6NE76 1-136)
chain: MGEMEREGATAKVGAGKVGAGKVGAAKAGAAPAAAQGAGTKVVAAQGAGTKVVAAQGAGAKAAAVGVGKVGAGAKAVGGTIWSGKGLALGLGMGLGAWGPLILGVVGAGAVYAYMKSRDIEAAQSDEEVELRDALS

- binding [3]: no binding
B2: MamG (protein, UniProt Q6NE75 1-84)
chain: MIKGIAGVGGTALGVGGGVAAPPVSAAAVGSTLLAGKGVCLGLGLGLGAWGPVLLGVAGLACAASLCDYLKNRKAQAEASAEPA
